Patent US20100095387A1, “METHODS AND REAGENTS FOR SCREENING NEW DRUGS AND FOR TREATING ION PUMP ASSOCIATED DISORDERS AND DISEASES” (priority 2005, published 2010)
Results are given in words; binding and its absence hold for the method and conditions named. Some results given as binding are weak or reduced against the parent protein; the word gives no strength.

Chains of the proteins cited; added tags and fusions are not shown. Lines headed by an entry give the natural chain unless they say otherwise; changes in a name come on top. A line that says so, or that is headed by a name, gives the form on record, which may keep a tag or linker.
UniProt A2ASQ1: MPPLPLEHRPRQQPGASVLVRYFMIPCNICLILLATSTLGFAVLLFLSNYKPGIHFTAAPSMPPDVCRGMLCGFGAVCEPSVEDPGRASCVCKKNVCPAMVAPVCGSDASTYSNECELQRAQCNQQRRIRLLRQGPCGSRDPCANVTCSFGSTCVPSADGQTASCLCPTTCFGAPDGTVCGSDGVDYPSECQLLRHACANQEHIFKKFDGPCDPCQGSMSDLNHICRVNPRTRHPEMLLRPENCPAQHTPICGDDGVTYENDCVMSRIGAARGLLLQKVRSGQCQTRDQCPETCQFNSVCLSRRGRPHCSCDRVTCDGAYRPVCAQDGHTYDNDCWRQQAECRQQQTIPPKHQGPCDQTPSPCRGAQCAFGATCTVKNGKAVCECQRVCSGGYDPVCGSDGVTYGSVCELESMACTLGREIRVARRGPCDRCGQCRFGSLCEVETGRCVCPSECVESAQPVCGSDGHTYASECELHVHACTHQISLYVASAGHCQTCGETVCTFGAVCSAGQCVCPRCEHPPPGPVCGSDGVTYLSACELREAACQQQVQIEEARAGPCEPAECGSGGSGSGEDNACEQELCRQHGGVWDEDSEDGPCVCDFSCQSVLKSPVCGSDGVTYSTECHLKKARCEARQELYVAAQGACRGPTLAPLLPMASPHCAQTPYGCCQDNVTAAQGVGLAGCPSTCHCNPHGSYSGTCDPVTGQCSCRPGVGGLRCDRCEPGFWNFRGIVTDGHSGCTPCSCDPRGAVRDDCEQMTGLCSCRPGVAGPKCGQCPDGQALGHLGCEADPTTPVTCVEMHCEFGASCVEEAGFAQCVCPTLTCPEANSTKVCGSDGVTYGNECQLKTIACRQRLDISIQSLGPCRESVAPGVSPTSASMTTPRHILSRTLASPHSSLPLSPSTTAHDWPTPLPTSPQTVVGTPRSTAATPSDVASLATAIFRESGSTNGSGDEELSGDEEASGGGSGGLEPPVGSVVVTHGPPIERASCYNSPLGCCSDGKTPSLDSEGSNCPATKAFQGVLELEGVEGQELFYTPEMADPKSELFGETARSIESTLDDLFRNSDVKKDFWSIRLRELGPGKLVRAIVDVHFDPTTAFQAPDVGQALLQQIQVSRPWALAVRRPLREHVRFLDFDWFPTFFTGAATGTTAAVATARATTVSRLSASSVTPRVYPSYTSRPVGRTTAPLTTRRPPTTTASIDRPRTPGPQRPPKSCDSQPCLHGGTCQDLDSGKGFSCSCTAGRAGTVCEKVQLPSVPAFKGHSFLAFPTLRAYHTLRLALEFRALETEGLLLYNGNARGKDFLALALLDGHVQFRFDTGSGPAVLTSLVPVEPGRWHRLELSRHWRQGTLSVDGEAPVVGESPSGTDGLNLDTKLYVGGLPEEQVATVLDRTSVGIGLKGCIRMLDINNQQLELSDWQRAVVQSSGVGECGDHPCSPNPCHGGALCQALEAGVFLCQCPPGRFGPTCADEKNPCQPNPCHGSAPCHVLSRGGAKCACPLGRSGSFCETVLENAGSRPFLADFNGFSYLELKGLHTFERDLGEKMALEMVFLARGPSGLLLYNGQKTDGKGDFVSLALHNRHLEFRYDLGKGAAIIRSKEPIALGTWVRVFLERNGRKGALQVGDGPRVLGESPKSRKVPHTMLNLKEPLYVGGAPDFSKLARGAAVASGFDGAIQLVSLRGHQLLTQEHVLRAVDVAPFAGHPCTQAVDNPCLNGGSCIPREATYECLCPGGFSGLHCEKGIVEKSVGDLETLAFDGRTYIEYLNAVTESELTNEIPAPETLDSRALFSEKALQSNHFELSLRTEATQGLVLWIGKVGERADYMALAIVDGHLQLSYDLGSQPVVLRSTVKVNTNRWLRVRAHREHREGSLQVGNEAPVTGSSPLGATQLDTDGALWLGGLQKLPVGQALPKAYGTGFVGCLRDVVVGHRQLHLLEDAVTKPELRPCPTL
rC-Agy4z8, soluble 95-kD COOH-terminal fragment of rat agrin, y4 z8 (P25304, form named): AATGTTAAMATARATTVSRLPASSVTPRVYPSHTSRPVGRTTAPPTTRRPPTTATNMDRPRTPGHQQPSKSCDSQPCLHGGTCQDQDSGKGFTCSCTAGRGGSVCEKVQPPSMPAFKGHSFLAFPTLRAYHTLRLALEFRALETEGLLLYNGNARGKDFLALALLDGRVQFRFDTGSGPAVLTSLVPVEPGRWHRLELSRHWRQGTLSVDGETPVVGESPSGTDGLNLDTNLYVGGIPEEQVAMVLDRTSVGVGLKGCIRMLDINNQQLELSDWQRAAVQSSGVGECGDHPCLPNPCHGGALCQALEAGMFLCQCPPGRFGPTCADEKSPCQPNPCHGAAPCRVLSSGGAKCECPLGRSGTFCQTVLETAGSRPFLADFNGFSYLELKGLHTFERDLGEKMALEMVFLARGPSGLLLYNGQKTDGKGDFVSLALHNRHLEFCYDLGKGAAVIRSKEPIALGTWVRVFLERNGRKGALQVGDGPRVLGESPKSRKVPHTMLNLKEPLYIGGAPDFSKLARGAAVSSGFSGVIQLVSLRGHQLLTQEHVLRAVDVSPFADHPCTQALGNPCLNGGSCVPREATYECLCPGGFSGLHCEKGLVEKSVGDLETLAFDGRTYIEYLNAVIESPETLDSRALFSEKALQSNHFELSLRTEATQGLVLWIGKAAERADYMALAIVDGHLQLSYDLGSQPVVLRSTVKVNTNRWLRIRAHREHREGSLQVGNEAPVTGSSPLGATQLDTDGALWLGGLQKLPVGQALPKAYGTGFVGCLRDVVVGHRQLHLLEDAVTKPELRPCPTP

Key:
[1] = target: α3 subunit of the Na+/K+-ATPase, endogenous on mouse cells (cortical neurons, cortical slices, cardiac myocytes) (mouse) (UniProt Q6PIC6); test: BS3 cross-linking of cultured cortical neurons and cortical slices, immunoprecipitation, immunoblot for α3
[2] = target: α3 subunit of the Na+/K+-ATPase, endogenous on mouse cells (cortical neurons, cortical slices, cardiac myocytes) (mouse) (UniProt Q6PIC6); test: BS3 cross-linking, immunoprecipitation with agrin or α3 antibodies, immunoblot for α3
[3] = target: α3 subunit of the Na+/K+-ATPase, endogenous on mouse cells (cortical neurons, cortical slices, cardiac myocytes) (mouse) (UniProt Q6PIC6); test: competition against His-tagged short mouse agrin fragments on live cortical neurons, immunofluorescence
[4] = target: α3 subunit of the Na+/K+-ATPase, endogenous on mouse cells (cortical neurons, cortical slices, cardiac myocytes) (mouse) (UniProt Q6PIC6); test: competition at 500-fold molar excess against His-tagged short mouse agrin fragments on live cortical neurons

Row | binding [1] | binding [2] | binding [3] | binding [4] | Substance
1 | binds | binds |  |  | endogenous (native) agrin of mouse cortical neurons and cortex (from UniProt A2ASQ1 1-1950) (ligand)
2 |  |  | binds | binds | rC-Agy4z8, soluble 95-kD COOH-terminal fragment of rat agrin, y4 z8 (from UniProt P25304 1153-1951) (ligand)
